Laboratory results reported in patent publication US9315465B2, “Photostable AIE luminogens for specific mitochondrial imaging and its method of manufacturing thereof” (THE HONG KONG UNIVERSITY OF SCIENCE AND TECHNOLOGY, priority 2013, dated 2016).

Tested on: HeLa cells
Assay: Photostability under continuous confocal scanning of stained cells
Type: cell-based
Conditions: for fluorescence emission with increasing number of scans: HeLa cells, continuous excitation 488 nm (TPE-MitoR) or 560 nm (MitoTracker Red)

Structure (SMILES)	fluorescence emission with increasing number of scans	fluorescence signal loss (HeLa cells stained 5 μM 1 h, 50 scans, total irradiation ~7 min, 405 nm, 65 μW)	signal intensity remaining (HeLa cells stained 50 nM 30 min, after 6 scans, 560 nm, 65 μW)
CC[N+]1=C(/C=C/c2ccc(-c3ccc(C(=C(c4ccccc4)c4ccccc4)c4ccccc4)cc3)cc2)C(C)(C)c2ccccc21 [TPE-MitoR, (E)-1-ethyl-3,3-dimethyl-2-(2-(4′(1,2,2-triphenylvinyl)-[1,1′-biphenyl]-4-yl)vinyl)-3H-indol-1-ium hexafluorophosphate]	kept steady even after forty scans		
[Br-].[Br-].c1ccc(C(=C(c2ccccc2)c2ccc(C[P+](c3ccccc3)(c3ccccc3)c3ccccc3)cc2)c2ccc(C[P+](c3ccccc3)(c3ccccc3)c3ccccc3)cc2)cc1 [TPE-TPP, Bis(Triphenylphosphonium) Tetraphenylethene]		less than 20%	
CN1C(=CC=Cc2n(Cc3ccc(CCl)cc3)c3cc(Cl)c(Cl)cc3[n+]2Cc2ccc(CCl)cc2)C(C)(C)c2ccccc21.[Cl-] [MT]	completely quenched in less than ten scans		less than 25%
